For 16 compounds, cell viability results are on record in the supplement of paper PMC12873370.

Several values for one entry are separate records, joined by “and”; a condition that tells them apart may be missing. Identical values can stand only once. This is one part of the list. Many values rest on one well or one pass, so single values are uncertain.

For test [1], the system named is MEPP (mouse ovarian epithelium Trp53/Pten KO). Kind of test: cell viability relative to untreated (fraction); higher = less growth inhibition. Conditions: 5 µM; 3 days.
In test [2] the test system is PREPP (mouse prostate epithelium Trp53/Pten KO). The description is as above. Conditions: 5 µM; 3 days.

Take `C[C@H]1[C@H](C)CC[C@]2(C(=O)O)CC[C@]3(C)C(=CC[C@@H]4[C@@]5(C)CC[C@H](O)C(C)(C)[C@@H]5CC[C@]43C)[C@H]12`: the cell viability in test [1] is 0.816; in test [2], 1.27.

Regarding `O=C(O)c1c(O)cccc1O`, the results for the cell viability in test [1] and in test [2] were 1.23 and 0.971, respectively.

For `CCCSc1ccc2[nH]c(NC(=O)OC)nc2c1`, the cell viability is 0.665 in test [1] and 0.692 in test [2].

As for `O=C(O)[C@H](O)c1ccccc1`, the cell viability stood at 0.904 in test [1] and 0.872 in test [2].

Regarding `COc1ccccc1C(=O)O`, the cell viability was found to be 0.895 in test [1] and 0.975 in test [2].

For the compound `CNC[C@H](O)c1cccc(O)c1`, the cell viability in test [1] came out at 1.05; in test [2], 0.991.

With `CN(C)CCOC(c1ccccc1)c1ccccc1`, the results for the cell viability in test [1] and in test [2] were 0.947 and 0.798, respectively.

In the case of `C[C@H](CCC(=O)NCC(=O)O)[C@H]1CC[C@H]2[C@@H]3[C@H](O)C[C@@H]4C[C@H](O)CC[C@]4(C)[C@H]3CC[C@]12C`, the cell viability is 0.996 and 1.02 in test [1]; 1.05 and 0.9 in test [2].

On to `NC(=O)c1ccc[n+]([C@@H]2O[C@H](CO)[C@@H](O)[C@H]2O)c1`, for which the cell viability in test [1] was determined as 0.97; in test [2] it was 1.23.

`[O-][n+]1cccc(CO)c1`: the cell viability in test [1] stood at 1.22; in test [2], 1.03.

In the case of `CCCCCCCCCCCCCCCC(=O)OCC`, the cell viability in test [1] came to 1.08; in test [2], 0.889.

Take `Cn1cnc2c(ncn2[C@@H]2O[C@H](CO)[C@@H](O)[C@H]2O)c1=N`: the cell viability in test [1] and in test [2] was 1.03 each time.

Turning to `COc1cccc(OC)c1C(=O)OCc1cc(O)ccc1O[C@@H]1O[C@H](CO)[C@@H](O)[C@H](O)[C@H]1O`, the cell viability is 1.09 in test [1] and 0.872 in test [2].

`CC(C)(C)[C@H]1CC[C@H](CC2=C(O)C(=O)c3ccccc3C2=O)CC1`: the cell viability in test [1] turned out to be 0.887; in test [2], 0.943.

In the case of `c1cnc2cc3c(cc2n1)[C@@H]1CNC[C@H]3C1`, the cell viability in test [1] came to 0.999; in test [2], 0.953.

In the case of `NC[C@H]1CC[C@H](C(=O)O)CC1`, the cell viability in test [1] stood at 1.46; in test [2], 1.03.
